The source of these data is publication PMC12040169 (PLOS Biology, 2025).

This is one part of the list.

The experiment concerns T1, CTL2-GFP (C. trachomatis L2/434/Bu, GFP-expressing).
T1 construct: L2/434/Bu, GFP-expressing
On the set-up: species or system HeLa; Intracellular C. trachomatis growth in HeLa cells, bulk GFP fluorescence relative to DMSO. The conditions noted are these: bulk GFP, single well; 28.5 h, 10 µM; inhibitor.
Take `COc1ccc(CN2CCCC(c3nc(C)n4ccccc34)C2)cc1` (stereo not shown) [CBK282984]: the “% of control remaining” value was found to be 123.111%. On to `COC(=O)C(NC(=O)c1cnc(-c2cccc(C(F)(F)F)c2)c(-c2ccncc2)c1)c1ccccc1` (stereo not shown) [CBK037624], for which the “% of control remaining” value is given as 180.34%. Turning to `O=C(O)Cc1csc(SCc2cc(F)cc3c2OC(c2ccccc2)OC3)n1` (stereo not shown) [CBK295158], the “% of control remaining” value amounted to 152.678%. For `CCc1nnc(COC(=O)c2ccccc2NC(=O)Cc2ccccc2)o1` [CBK296762], the “% of control remaining” value came out at 156.745%. For `COc1cccc([C@H]2CC[C@H](N(CCN(C)C)C(=O)Nc3cc(F)ccc3F)CC2)c1OC` [CBK050184], the “% of control remaining” value was 96.5797%. For `CCOC(=O)C(NC(=O)c1c(C)nn(C)c1C)c1cccc(C)c1C` (stereo not shown) [CBK304253], the “% of control remaining” value is reported as 105.44%. Turning to `CCOC(=O)c1cnn2c(C)cc(C)nc12` [CBK101119], the “% of control remaining” value is listed as 124.292%. In the case of `C=CCN(C)C(=O)[C@H]1C[C@@H](O)[C@H](O)[C@@H]2N=C(Nc3cc(C)cc(C)c3)S[C@@H]21` [CBK288948], the “% of control remaining” value is on record as 122.359%. As to `COc1ccc(C2(C(=O)NCCc3c[nH]cn3)CC2)cc1` [CBK149834], the “% of control remaining” value is listed as 115.353%. As for `CN(C)C1c2cccc3cccc(c23)C1NS(C)(=O)=O` (stereo not shown) [CBK265851], the “% of control remaining” value stood at 146.01%. With `Cc1nc(C(F)(F)F)ccc1C(=O)N1C=CC(C(F)(F)F)=NCC1` [CBK057187], the “% of control remaining” value is 100.812%. For `CCn1c(CNC(=O)C(C)Cn2cc(Cl)cn2)nc2ccccc21` (stereo not shown) [CBK281392], the “% of control remaining” value is listed as 126.896%.

On to `COc1ccnc(Cn2ncc(N3CCCC3)cc2=O)c1` [CBK304379], for which the “% of control remaining” value is on record as 132.467%.

For the compound `COc1ccc(-c2cncc(NCc3ccncc3)n2)cc1` [CBK065394], the “% of control remaining” value amounted to 90.587%. For `Cc1cnn(CCNc2cc(C(C)C)nc3ccnn23)c1` [CBK306792], the “% of control remaining” value came out at 131.262%. Take `O=S(=O)(c1ccc(Oc2ccc(S(=O)(=O)N3CCCCCC3)cc2)cc1)N1CCCCCC1` [CBK261729]: the “% of control remaining” value came out at 91.9118%. As to `CC(CNC(=O)Cn1nc(C(F)(F)F)c2c1CCC2)N1CCCC1` (stereo not shown) [CBK282212], the “% of control remaining” value worked out at 142.123%. `C(=C\c1ccccc1)/CN1CCN(CCCc2ccccc2)CC1` [CBK261897]: the “% of control remaining” value is 100%.

For the compound `COCCN1CCOC2(CCN(C(=O)c3ccc4ccccc4c3)CC2)C1c1ccccc1O` (stereo not shown) [CBK116232], the “% of control remaining” value is recorded as 81.2722%. Turning to `CO[C@H]1CNC[C@@H]1NC(=O)c1cccc2c1NCCC2` [CBK307421], the “% of control remaining” value is 112.212%. As for `O=C(Nc1c(F)cc(F)cc1OC1CCNCC1)c1cccnc1` [CBK050275T], the figure is 112.23%. For the compound `Cn1nccc1CNCc1cc(Br)ccc1Cl` [CBK305100], the “% of control remaining” value was determined as 106.673%. In the case of `Cc1cc(C(F)(F)F)nc(NCc2ccco2)n1` [CBK269555], the “% of control remaining” value is 99.1324%. Turning to `Cc1c(NC(=O)CSc2nnc3c4ccccc4n(C(C)C)c3n2)c(=O)n(-c2ccccc2)n1C` [CBK263916], the “% of control remaining” value is given as 100%. In the case of `C[C@@H](c1ccccc1)n1c(=O)[nH]c2ncc(-c3cccc4ncccc34)nc21` [CBK064394] it was 80.7305%; in that of `CC1CCCCN1CCCNc1cc(NS(=O)(=O)c2cn(C)cn2)cc2ccoc12` (stereo not shown) [CBK067940C], 106.457%; in that of `CC1(C)CC(=O)C(=CNCCC(c2ccccc2)c2ccccc2)C(=O)C1` [CBK262057], 84.1983%. In the case of `CC(C)(C)C(=O)N1CCC(c2nc3ccccc3cc2N)CC1` [CBK285039], the “% of control remaining” value is 116.671%. As to `COc1ccc(S(=O)(=O)N(C)CC(=O)NCc2cccnc2)cc1Cl` [CBK268089], the “% of control remaining” value came to 77.523%. In the case of `Cc1c(C(=O)Nc2cccnc2)nnn1-c1cccc(C(F)(F)F)c1` [CBK107389] it was 100.939%; in that of `CC(C)c1cc(C(=O)NC2CCN(c3ncccc3C#N)CC2)n(C)n1` [CBK306975], 86.3427%; in that of `Cn1nccc1C(=O)N1CCN(c2ncccn2)CC1` [CBK288240], 128.645%. Turning to `CCN1CCN(CC(=O)N/N=C/c2ccc(F)cc2)CC1` [CBK261615], the “% of control remaining” value is on record as 92.7252%. For `O=C(c1ccccn1)N1C[C@@H]2OCC(=O)N(Cc3ccccc3)[C@@H]2C1` [CBK289698], the “% of control remaining” value is 126.233%. Regarding `OCCNCc1cc(Br)ccc1OCc1ccc(F)cc1` [CBK266421C], the “% of control remaining” value turned out to be 138.225%. `CC(=O)Nc1cccc(Oc2nccnc2-c2cnn(Cc3ccccc3)c2)c1` [CBK107096]: the “% of control remaining” value is listed as 148.28%. Consider `CCCS(=O)(=O)NC1CCN(c2nc(C(F)(F)F)nc3ccsc23)CC1` [CBK304591], for which the “% of control remaining” value is on record as 107.299%. With `O=C(Nc1ccncc1)c1cc2cc(OC(F)(F)F)ccc2[nH]1` [CBK107369], the “% of control remaining” value came out at 123.046%. Consider `O=C(NCCC1SC(NC2CCCCCC2)=NC1=O)Nc1ccc(C(F)(F)F)cc1Cl` (stereo not shown) [CBK067682], for which the “% of control remaining” value is 122.862%. Take `Oc1cccc(-c2cn3ccnc3c(NCc3ccccn3)n2)c1` [CBK037535]: the “% of control remaining” value turned out to be 175.219%. Regarding `COc1ccc([C@@]23CC[C@@H](NS(=O)(=O)c4cccc5cccnc45)C[C@@H]2N(C)CC3)cc1OC` [CBK056849T], the “% of control remaining” value worked out at 118.321%. With `c1ccc(C2CCCNC2)cc1` (stereo not shown) [CBK011753], the “% of control remaining” value is on record as 97.5645%. As for `CN1CCC(=NNC(=O)CSCc2ccccc2Br)CC1` [CBK026542], the figure is 109.604%; as for `COc1cc(CNC(=O)c2ccc(-c3ccc(NC(C)=O)cc3)nc2)cc(OC)c1OC` [CBK158851], 129.249%; as for `CCOc1cc2c(cc1CN(Cc1ccc3c(c1)OCO3)CC(C)O)CCC2` (stereo not shown) [CBK286474], 120.607%.

Consider `COc1ccc(OC)c(NC(=O)CSc2nnc(-c3ccco3)o2)c1` [CBK267429], for which the “% of control remaining” value amounted to 111.173%. Consider `CCn1c(=O)n(CC(=O)NCc2ccccc2)c2cccnc21` [CBK283824], for which the “% of control remaining” value stood at 96.5567%.

Take `CCc1cc(-c2n[nH]c(C(=O)O)c2-c2nc(C)cs2)c(O)cc1O` [CBK268247]: the “% of control remaining” value is 93.4827%. In the case of `COc1ccc(-c2cc(C(F)(F)F)nc(SCC(=O)Nc3ccc4c(c3)OCO4)n2)cc1OC` [CBK266169], the “% of control remaining” value stood at 174.046%.

Regarding `Cc1c(NCc2ccccn2)cccc1C(=O)O` [CBK269651], the “% of control remaining” value was found to be 126.54%. For the compound `NNC(=O)c1cc(O)n[nH]1` [CBK262669], the “% of control remaining” value came out at 109.241%. Take `CCOC(=O)C1=C(C)N(CCO)C(=O)NC1c1ccccc1Br` (stereo not shown) [CBK027192]: the “% of control remaining” value worked out at 113.883%. Consider `CC(NCC(O)c1ccco1)c1ccc(C#N)s1` (stereo not shown) [CBK304265], for which the “% of control remaining” value turned out to be 117.947%. On to `COC(=O)CCCC(=O)n1c(=O)n(Cc2ccc(S(C)(=O)=O)cc2)c2ccccc21` [CBK106538], for which the “% of control remaining” value is 65.5575%. As for `CC(C(=O)NC1(C#N)CCCCC1)N1CCOC(Cn2cncn2)C1` (stereo not shown) [CBK305359], the figure is 107.117%; as for `O=C(O)CCc1ccc(-c2ccc(N3CCN(CCN4CCCC4)CC3)nc2)cc1` [CBK037796], 152.927%. For the compound `N#Cc1sc2c(c1NC(=O)C(F)(F)F)CCCC2` [CBK019233], the “% of control remaining” value stood at 128.278%. In the case of `O=C(c1ccc(CCN2CCCC2)nc1)N1CCN(CCc2ccccc2)CC1` [CBK200227] it was 104.921%; in that of `Cc1cc(C)n(C(C(=O)NCCOc2ccc(F)cc2)C(C)C)n1` (stereo not shown) [CBK281595], 136.915%; in that of `Cc1nc(NC(=O)C2CC(=O)N(c3cccc(C(C)C)c3)C2)sc1-c1n[nH]c(=S)n1C` (stereo not shown) [CBK295306], 164.998%. As for `COc1ccc(-c2cc(C(=O)NCc3cc(Cl)cc(Cl)c3)cnc2-c2ccc(Cl)cc2)cn1` [CBK037431], the figure is 217.11%.

In the case of `N#Cc1ccc(N)c2ccccc12` [CBK015754], the “% of control remaining” value was found to be 116.142%.

For the compound `Cc1cc(Cn2nnc(-c3cccnc3)n2)cc(C)c1O` [CBK291130], the “% of control remaining” value was 115.678%. As for `CC(C)CCc1csc(C2CN3CCCC3CO2)n1` (stereo not shown) [CBK304266], the figure is 141.962%.

Turning to `CS(=O)(=O)N1CC2(CCN(CCc3ccccc3)CC2)c2ccccc21` [CBK084015], the “% of control remaining” value amounted to 138.084%. Turning to `O=C(NC(=S)CC1C=NCS1)c1ccccc1` (stereo not shown) [CBK020794], the “% of control remaining” value turned out to be 74.5431%. In the case of `Cc1ccc(S(N)(=O)=O)cc1NC(=O)Cc1ccccc1` [CBK024413], the “% of control remaining” value is 109.096%. Regarding `O=C(CCc1nc2ccccc2[nH]1)Nc1ccc(F)cc1` [CBK267238], the “% of control remaining” value was determined as 113.48%. Regarding `Cc1ccc(Nc2cc(-c3cccc(N)c3)ncn2)cc1NS(C)(=O)=O` [CBK091145], the “% of control remaining” value turned out to be 173.281%. Turning to `O=C(O)CCC(=O)Nc1nc(-c2ccccc2)cs1` [CBK286947], the “% of control remaining” value was 124.941%. Regarding `CN1CCN(C(=O)c2cc(-c3ccc(C(=O)N4CCOCC4)cc3)cnc2N)CC1` [CBK158584], the “% of control remaining” value is recorded as 130.508%.

With `O=C(O)CCC(=O)Nc1cccc(C(=O)Nc2cccc(Cl)c2)c1` [CBK296977], the “% of control remaining” value is listed as 112.491%. As to `CC1(C)CC(NC(=O)c2cc([N+](=O)[O-])ccc2Cl)CC(C)(C)N1` [CBK263948], the “% of control remaining” value worked out at 126.962%. As to `O=C(N/N=C/c1ccc([N+](=O)[O-])cc1)C(=O)Nc1cccc(Cl)c1` [CBK261821], the “% of control remaining” value was 111.863%. As to `Fc1cc(F)cc(-c2nnc(Cc3nc(-c4ccncc4)no3)o2)c1` [CBK288602], the “% of control remaining” value came to 117.666%. `CC(=O)N1C[C@@H](c2ccsc2)[C@@H]2CN(CC3CCCCC3)CC[C@@H]21` [CBK284587]: the “% of control remaining” value is recorded as 129.529%.

For the compound `COCOc1ccc(-c2ncc(OC)nc2NC(=O)COC)cc1` [CBK145216], the “% of control remaining” value is reported as 102.844%. As for `Cc1ccc(C)c2[nH]c(=O)c(CN(CCN3CCOCC3)Cc3nnnn3C3CCCCC3)cc12` [CBK108116], the “% of control remaining” value worked out at 107.6%. For `COc1ccccc1NC(=O)/C(=C\c1cccnc1)NC(=O)c1ccccc1` [CBK261649], the “% of control remaining” value worked out at 118.418%.
